Results as given in patent publication US20220177546A1.
Results are given in words; binding and its absence hold for the method and conditions named. Some binding calls cover weakened binding; strength is not graded here.

Sequences of proteins named here, by UniProt entry; tags and fusion partners are left off. A change or cut given only in a name is not applied to a line headed by its entry.
UniProt Q16787: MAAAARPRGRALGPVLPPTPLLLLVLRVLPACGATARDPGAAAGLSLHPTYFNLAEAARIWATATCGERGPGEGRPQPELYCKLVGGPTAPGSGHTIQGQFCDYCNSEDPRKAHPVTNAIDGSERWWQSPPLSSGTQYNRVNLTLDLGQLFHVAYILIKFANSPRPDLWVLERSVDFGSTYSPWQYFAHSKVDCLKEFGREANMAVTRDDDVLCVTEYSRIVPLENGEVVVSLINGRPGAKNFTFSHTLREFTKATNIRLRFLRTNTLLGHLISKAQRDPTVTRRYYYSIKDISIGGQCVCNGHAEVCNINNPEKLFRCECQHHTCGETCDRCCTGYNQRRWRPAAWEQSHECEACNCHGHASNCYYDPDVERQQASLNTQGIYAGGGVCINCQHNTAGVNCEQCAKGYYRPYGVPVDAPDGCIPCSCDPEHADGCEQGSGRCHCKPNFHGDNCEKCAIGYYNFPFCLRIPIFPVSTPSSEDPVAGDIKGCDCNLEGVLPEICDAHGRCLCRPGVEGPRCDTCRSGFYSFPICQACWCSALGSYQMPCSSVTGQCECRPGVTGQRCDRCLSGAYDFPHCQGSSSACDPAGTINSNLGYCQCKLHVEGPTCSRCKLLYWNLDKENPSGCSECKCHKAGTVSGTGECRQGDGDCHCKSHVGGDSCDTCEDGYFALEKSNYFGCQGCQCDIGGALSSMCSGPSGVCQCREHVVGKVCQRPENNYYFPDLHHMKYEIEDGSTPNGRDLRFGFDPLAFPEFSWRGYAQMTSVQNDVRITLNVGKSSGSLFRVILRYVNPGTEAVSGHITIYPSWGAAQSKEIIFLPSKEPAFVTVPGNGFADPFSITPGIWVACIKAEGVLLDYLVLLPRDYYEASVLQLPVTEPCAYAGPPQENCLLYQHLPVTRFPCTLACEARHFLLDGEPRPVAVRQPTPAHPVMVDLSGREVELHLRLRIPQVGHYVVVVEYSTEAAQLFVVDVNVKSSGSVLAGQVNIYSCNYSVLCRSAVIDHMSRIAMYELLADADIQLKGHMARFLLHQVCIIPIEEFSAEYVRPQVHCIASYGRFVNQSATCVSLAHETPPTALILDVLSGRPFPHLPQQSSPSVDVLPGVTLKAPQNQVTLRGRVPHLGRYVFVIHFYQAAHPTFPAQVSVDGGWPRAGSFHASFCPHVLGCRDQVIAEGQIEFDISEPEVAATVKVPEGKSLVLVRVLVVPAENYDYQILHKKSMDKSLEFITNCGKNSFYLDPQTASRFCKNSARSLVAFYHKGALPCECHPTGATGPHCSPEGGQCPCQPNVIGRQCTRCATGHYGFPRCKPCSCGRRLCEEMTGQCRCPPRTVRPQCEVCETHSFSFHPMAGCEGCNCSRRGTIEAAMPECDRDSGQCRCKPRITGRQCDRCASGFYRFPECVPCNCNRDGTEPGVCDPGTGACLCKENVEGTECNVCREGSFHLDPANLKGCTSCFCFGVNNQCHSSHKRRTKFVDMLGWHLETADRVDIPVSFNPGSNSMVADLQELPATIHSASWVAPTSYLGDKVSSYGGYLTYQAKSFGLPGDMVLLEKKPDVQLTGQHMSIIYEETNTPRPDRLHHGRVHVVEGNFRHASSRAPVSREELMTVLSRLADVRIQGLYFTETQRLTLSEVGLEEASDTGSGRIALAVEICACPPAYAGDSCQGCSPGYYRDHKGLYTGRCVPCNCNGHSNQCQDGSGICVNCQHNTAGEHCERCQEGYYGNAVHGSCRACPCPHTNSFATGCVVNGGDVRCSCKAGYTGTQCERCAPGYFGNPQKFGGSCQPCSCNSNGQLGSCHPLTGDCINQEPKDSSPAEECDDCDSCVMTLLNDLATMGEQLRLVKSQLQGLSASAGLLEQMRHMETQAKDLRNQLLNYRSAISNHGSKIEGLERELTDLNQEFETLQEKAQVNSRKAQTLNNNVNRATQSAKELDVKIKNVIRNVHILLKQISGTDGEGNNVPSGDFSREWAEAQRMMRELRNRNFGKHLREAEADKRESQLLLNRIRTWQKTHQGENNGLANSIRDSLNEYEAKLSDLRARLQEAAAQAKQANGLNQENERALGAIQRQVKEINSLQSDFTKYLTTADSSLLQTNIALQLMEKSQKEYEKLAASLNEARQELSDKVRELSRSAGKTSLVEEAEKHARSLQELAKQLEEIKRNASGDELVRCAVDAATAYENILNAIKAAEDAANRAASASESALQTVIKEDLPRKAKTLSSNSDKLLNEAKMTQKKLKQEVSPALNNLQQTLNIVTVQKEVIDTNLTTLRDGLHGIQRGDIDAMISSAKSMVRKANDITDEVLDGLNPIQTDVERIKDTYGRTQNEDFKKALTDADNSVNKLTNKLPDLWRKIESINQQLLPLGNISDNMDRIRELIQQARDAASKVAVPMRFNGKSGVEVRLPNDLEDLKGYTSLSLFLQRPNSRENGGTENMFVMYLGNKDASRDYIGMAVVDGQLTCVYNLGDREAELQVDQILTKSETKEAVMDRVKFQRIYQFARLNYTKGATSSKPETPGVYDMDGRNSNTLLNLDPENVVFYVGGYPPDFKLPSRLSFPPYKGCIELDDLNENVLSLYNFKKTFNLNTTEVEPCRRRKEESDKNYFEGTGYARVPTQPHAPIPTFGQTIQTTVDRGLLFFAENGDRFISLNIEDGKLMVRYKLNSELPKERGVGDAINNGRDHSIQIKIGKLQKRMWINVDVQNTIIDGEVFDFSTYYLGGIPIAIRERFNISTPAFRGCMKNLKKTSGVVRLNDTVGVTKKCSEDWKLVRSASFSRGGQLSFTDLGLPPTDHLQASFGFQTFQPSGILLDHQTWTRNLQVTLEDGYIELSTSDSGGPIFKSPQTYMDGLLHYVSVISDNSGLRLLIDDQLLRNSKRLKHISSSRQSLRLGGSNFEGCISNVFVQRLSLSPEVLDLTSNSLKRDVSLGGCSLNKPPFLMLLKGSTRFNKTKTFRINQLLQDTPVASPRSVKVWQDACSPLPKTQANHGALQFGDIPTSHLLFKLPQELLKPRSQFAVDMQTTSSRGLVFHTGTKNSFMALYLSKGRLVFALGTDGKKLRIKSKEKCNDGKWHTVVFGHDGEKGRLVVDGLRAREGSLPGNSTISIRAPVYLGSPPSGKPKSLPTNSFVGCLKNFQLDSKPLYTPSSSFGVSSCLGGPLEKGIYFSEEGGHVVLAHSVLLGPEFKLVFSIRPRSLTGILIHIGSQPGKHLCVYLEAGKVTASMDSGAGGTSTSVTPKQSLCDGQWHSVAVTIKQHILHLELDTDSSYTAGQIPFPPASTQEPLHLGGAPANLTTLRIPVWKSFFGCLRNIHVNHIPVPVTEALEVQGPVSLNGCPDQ
UniProt Q02388: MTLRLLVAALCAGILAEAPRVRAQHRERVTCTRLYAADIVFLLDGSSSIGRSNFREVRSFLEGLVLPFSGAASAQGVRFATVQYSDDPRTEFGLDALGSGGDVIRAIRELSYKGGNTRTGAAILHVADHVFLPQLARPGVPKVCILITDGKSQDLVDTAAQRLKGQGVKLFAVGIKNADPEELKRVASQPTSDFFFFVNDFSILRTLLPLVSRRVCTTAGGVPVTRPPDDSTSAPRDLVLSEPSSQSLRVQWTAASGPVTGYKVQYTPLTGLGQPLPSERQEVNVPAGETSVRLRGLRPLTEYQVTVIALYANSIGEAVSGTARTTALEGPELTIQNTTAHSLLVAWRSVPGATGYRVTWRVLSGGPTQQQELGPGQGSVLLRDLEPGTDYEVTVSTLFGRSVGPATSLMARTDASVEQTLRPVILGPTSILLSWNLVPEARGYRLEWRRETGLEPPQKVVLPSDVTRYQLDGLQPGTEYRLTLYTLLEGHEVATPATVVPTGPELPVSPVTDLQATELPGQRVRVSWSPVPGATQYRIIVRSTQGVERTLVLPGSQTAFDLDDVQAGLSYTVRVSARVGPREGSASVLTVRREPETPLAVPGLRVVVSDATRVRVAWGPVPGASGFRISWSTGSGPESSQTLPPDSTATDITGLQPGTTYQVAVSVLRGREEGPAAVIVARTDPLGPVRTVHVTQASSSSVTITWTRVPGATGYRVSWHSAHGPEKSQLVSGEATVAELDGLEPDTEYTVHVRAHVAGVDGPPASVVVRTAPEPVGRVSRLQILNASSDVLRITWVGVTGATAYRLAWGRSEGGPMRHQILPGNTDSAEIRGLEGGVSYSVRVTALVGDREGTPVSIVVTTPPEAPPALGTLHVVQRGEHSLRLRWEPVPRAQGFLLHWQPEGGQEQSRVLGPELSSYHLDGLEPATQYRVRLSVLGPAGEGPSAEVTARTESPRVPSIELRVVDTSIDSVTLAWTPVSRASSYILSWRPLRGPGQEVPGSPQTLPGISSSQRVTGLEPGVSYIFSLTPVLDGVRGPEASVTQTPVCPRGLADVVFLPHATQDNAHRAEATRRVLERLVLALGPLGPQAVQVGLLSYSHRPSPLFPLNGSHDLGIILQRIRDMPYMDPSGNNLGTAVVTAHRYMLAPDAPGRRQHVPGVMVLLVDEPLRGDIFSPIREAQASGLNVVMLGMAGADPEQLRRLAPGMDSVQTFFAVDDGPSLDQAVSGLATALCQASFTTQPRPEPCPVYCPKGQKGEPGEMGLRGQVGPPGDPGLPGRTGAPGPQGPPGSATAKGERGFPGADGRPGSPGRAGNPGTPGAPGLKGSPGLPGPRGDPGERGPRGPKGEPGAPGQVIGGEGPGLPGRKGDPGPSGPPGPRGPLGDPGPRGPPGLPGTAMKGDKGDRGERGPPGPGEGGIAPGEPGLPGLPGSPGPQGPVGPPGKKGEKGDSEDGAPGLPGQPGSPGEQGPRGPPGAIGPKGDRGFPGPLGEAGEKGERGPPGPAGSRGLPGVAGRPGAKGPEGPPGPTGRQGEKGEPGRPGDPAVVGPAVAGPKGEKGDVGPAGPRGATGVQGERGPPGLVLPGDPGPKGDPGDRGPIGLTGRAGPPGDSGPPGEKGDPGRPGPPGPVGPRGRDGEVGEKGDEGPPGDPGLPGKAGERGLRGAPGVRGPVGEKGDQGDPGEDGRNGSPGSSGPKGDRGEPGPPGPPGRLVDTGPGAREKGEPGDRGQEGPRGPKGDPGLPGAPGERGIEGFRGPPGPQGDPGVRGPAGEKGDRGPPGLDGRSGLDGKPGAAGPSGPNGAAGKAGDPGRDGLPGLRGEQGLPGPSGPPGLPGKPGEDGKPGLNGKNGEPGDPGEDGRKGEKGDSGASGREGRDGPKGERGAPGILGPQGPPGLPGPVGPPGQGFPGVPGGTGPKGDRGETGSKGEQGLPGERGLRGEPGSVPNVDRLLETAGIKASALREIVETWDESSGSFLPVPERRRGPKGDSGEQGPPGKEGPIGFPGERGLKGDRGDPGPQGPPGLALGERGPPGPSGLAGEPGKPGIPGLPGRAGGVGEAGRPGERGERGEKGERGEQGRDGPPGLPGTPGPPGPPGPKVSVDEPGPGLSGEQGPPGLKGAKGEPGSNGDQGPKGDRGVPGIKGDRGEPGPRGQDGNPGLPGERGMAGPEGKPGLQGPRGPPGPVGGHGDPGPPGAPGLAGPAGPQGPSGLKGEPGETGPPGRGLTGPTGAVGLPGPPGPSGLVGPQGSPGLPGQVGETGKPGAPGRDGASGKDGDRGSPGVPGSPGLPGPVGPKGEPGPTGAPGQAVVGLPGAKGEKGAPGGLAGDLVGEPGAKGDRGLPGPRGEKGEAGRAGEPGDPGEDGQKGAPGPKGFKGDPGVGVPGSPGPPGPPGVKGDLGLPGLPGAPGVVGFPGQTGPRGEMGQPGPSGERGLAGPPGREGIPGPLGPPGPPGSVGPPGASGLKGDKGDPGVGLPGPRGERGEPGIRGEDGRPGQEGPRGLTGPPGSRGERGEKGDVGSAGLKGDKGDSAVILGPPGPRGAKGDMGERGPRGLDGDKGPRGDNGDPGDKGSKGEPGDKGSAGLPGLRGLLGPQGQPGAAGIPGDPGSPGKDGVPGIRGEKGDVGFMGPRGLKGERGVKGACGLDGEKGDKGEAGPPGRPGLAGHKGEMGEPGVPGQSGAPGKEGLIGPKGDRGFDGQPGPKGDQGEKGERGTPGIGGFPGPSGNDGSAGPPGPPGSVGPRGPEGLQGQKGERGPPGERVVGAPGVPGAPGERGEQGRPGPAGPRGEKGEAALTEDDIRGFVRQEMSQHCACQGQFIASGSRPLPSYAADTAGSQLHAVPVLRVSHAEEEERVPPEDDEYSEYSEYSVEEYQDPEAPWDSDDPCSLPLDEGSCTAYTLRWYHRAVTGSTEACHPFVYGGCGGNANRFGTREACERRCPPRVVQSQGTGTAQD

Experiments:
[1] = molecular target: laminin-332 (UniProt Q16787); assay: laminin-332 binding assay (FIG. 6 legend)
[2] = molecular target: laminin-332 (UniProt Q16787); assay: laminin-332 binding assay

binding [1] | binding [2] | Substance
binds | binds | MCB-derived rCol7 composition (recombinant human collagen 7 produced by CHO cell clone B1STBSTbcp03) (from UniProt Q02388 17-2944)
binds | binds | reference collagen 7 (from human fibroblasts) (from UniProt Q02388 17-2944)
